Results reported in PubChem BioAssay AID1347426 (Functional Genomics Laboratory (NCATS/FGL), 2020).
Hit rate of the full screen: of about 31,000 sequences, about 1,400 (4.5%) were called active.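 The calls were made as follows: active = median seed-adjusted z-score above 1 or below -1; inactive = the rest.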 The list shows a part of the results.

Assay: Novel Modifiers of Survival Motor Neuron (SMN) Protein: Gene Identification via Genome-wide siRNA Screen;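 also: luminescence tracks full-length SMN protein made from the SMN2 reporter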
Details: HEK293T SMN2-luciferase reporter, siRNA knockdown, 72 h; actives lie on both sides
Outline: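 Luciferase signal, proportional to full-length SMN made from an SMN2 cDNA reporter in stable HEK293T cells, was read 72 h after siRNA reverse transfection. Values were expressed as MAD scores after non-targeting-control normalization and log10 conversion; seed analysis flagged off-targets.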
In the case of CUCUCGAUCUGCUCACUGATT against CCRN4L, the median seed-adjusted z-score was inactive: -0.572. In the case of CAACAUCUCAGAUGCUUUUTT against ASNA1, the median seed-adjusted z-score was inactive: 0.357. With CCUGGAGACCGGUAUCUUUTT against LRIT1 the median seed-adjusted z-score was inactive: -0.611. In the case of GAGAACACCUCAUCCCAUATT against CCIN, the median seed-adjusted z-score was inactive: 0.0472. With CACUGUCAAUGGAUGAGCATT against RBMS2 the median seed-adjusted z-score was inactive: -0.918. With GGUCCUAACAAAAUCUUGATT against CD96 the median seed-adjusted z-score was inactive: 0.461. For GUUUGAUGCUAAAAAGUUUTT against EEF1G, the median seed-adjusted z-score was inactive: -0.206. In the case of ACAUUGAACGUCCCACGUATT against TUBA3E, the median seed-adjusted z-score was inactive: -0.35. In the case of CAGGCCCAAUUGUUAUCUATT against TRIM42, the median seed-adjusted z-score was inactive: -0.153. In the case of CGUAAUAAAUUGUCGAAAATT against EML4, the median seed-adjusted z-score was inactive: 0.958. For CCAUAAACAAGUUAUUCAATT against LDHC, the median seed-adjusted z-score was inactive: 0.537. With GAAGAGUGUCUGCAAUUCATT against PSMB6 the median seed-adjusted z-score was inactive: -0.579. For GGCUGUUUGUUCGCAAGCATT against SCD5, the median seed-adjusted z-score was inactive: -0.167. In the case of CCUUUAUUCGUGUUGCAUATT against ZNF571, the median seed-adjusted z-score was inactive: 0.175. With GAUCCAUAGUACACGAAUATT against ADAM7 the median seed-adjusted z-score was inactive: -0.0638. In the case of AGAACACGUUGGAAGUGUATT against MGST3, the median seed-adjusted z-score was inactive: -0.0509. In the case of CUGUAUCUCUAAUCCCUGUTT against KRT33A, the median seed-adjusted z-score was inactive: -0.107. For GGAAACCUCUGGACCUCUATT against ARID1A, the median seed-adjusted z-score was active: -1.14. For CGUCCACUCCUUCUCCAAATT against MEST, the median seed-adjusted z-score was inactive: -0.0503. For GGACCCAGUAUUUCAGGAATT against SFXN4, the median seed-adjusted z-score was inactive: -0.174. In the case of GGAGACUUACUACCUAUAATT against PARD6B, the median seed-adjusted z-score was inactive: 0.315. For GGAAUACAGGAGCACCUCATT against TTC16, the median seed-adjusted z-score was inactive: 0. For GCAUUGAGAUGUUCCACAATT against TUFM, the median seed-adjusted z-score was active: 1.07. For GGAUUACAGAGCCCAAUAATT against PTPN20A, the median seed-adjusted z-score was inactive: 0. For GGUCAAGCCUGACAGCAAATT against CDC2L6, the median seed-adjusted z-score was inactive: -0.31. With CCAUUGACAUCGAGCCUGATT against GPX1 the median seed-adjusted z-score was inactive: -0.0529. For GAGCGAGUCUGAUGGGAAUTT against SIX5, the median seed-adjusted z-score was inactive: 0. With GAAGGACCCAUGAUGCAAATT against EVPL the median seed-adjusted z-score was inactive: -0.146. For CAUUCGGAGAAGUCGCAAATT against DDX59, the median seed-adjusted z-score was inactive: -0.859. In the case of AAACACCAAUAGUGUCUAATT against VAPB, the median seed-adjusted z-score was inactive: 0.254. In the case of GGGAAGUCGUUUAACCAUATT against ZNF8, the median seed-adjusted z-score was inactive: 0.97. In the case of GAAUAGAGUUGUUCGGAAUTT against VCP, the median seed-adjusted z-score was inactive: -0.808. For GGCAGAAGCUAGAUCCCAATT against TPI1, the median seed-adjusted z-score was inactive: 0.447. With GACCCAACCUUUGUAUGCATT against ZHX3 the median seed-adjusted z-score was inactive: -0.0916. For CCAGUUCUUUCUACGGCAATT against PUM1, the median seed-adjusted z-score was inactive: 0.109. With GCAGCCUUGUCAUCGACAATT against PDLIM1 the median seed-adjusted z-score was inactive: -0.189. In the case of CACCCGCAAUGAUUACAGUTT against STAT5B, the median seed-adjusted z-score was inactive: 0. With GCUAAGAGACGACAUUGAATT against TEKT3 the median seed-adjusted z-score was inactive: 0.0494. With GAUUCCGAGUUGCUGCGUATT against PLCD4 the median seed-adjusted z-score was inactive: -0.4. With CCAGGACUGAAGUAUGGUATT against ENTPD3 the median seed-adjusted z-score was inactive: -0.28. In the case of GAGUUGCGCUUCAAACAAUTT against SHC1, the median seed-adjusted z-score was inactive: 0.0401. For AAAACUCCGUUUCUAAUUATT against TP53I13, the median seed-adjusted z-score was inactive: 0. For CACUUCAGAUGACAACCUATT against KCTD13, the median seed-adjusted z-score was inactive: -0.273. For GGCUUAGUGUGCAUCACAATT against PAPSS1, the median seed-adjusted z-score was inactive: -0.648. For GAAGUAGGAAGGUUAAGAATT against NUCB2, the median seed-adjusted z-score was inactive: 0.45. For CACUUAUACUAAGCACCAATT against CCNB1, the median seed-adjusted z-score was inactive: 0.163. In the case of CGUCAGCGACAAAACGUAATT against UBAC2, the median seed-adjusted z-score was inactive: 0.611. In the case of UGCUGUUCGUGGAUUUCAATT against CDX4, the median seed-adjusted z-score was inactive: 0.181. For GUGUUACCCUGGUGAAAGATT against VNN2, the median seed-adjusted z-score was inactive: -0.583. With CCCAUGAGAUGAUAAUGGATT against ZNF713 the median seed-adjusted z-score was inactive: -0.0652. For GGAGAUUAAUCACCAACUUTT against DERL2, the median seed-adjusted z-score was inactive: -0.27. With CCUUCAAACUGAACUCCAATT against ASL the median seed-adjusted z-score was inactive: 0.0344. With UGAAGGCCGUCAUUCCAGATT against GPER the median seed-adjusted z-score was inactive: 0.157. In the case of CGCUGGAUGGUUUUAAGAATT against P4HB, the median seed-adjusted z-score was inactive: -0.0514. In the case of GCAUCAAGAGAAUAAAGCUTT against MXD1, the median seed-adjusted z-score was inactive: -0.763. For GCAGUACAGUGAAUGCCGATT against AKAP8, the median seed-adjusted z-score was inactive: -0.252. With GGAUUGUUAUCCGACUGAATT against LRP6 the median seed-adjusted z-score was inactive: -0.116. For CAAUAAAUGUCAUAUUGCUTT against GK2, the median seed-adjusted z-score was inactive: 0. In the case of CUACUGCGAGGACAACUAUTT against ABI3, the median seed-adjusted z-score was inactive: 0.114. For AAACCAUCAUUUACCCUAUTT against SLC25A23, the median seed-adjusted z-score was inactive: 0.325. With GCACGGUAAUUUUGACAGUTT against CD302 the median seed-adjusted z-score was inactive: 0.0818. With GGAGCGAAGCUGUCACUGUTT against RHPN1 the median seed-adjusted z-score was inactive: 0.161. With GCGUGAGGAUGAUAAACCATT against AK3 the median seed-adjusted z-score was inactive: -0.0313. In the case of CACAUAGGCUAUUCCCUAATT against TIPIN, the median seed-adjusted z-score was inactive: 0. In the case of GGACAGAUCUUACCCAUCUTT against TRIM59, the median seed-adjusted z-score was inactive: 0.941. In the case of AUAUCGCUGUGAUGCAAAATT against PLA2G12B, the median seed-adjusted z-score was inactive: -0.162. In the case of GCAAUGCCUUAUUUAUAAUTT against LIPF, the median seed-adjusted z-score was inactive: 0.54. With CAGUCUUGUGAAUAUGAUATT against RALGPS2 the median seed-adjusted z-score was inactive: 0.0124. In the case of CGAUAAGUUCAAAGACAAATT against NKIRAS1, the median seed-adjusted z-score was inactive: 0.113. With CAGACUCUCCGAUCUCUGATT against NRIP3 the median seed-adjusted z-score was inactive: -0.699. In the case of GGACUACCUUUCUCAUCAATT against B3GALTL, the median seed-adjusted z-score was inactive: -0.259. With GGAUGUGAAUGGAUCUUGUTT against TAAR8 the median seed-adjusted z-score was inactive: 0.0792. In the case of UGCCCUUGGCUAUCCCUGATT against SLC30A3, the median seed-adjusted z-score was active: -1.26. With ACAUGCUUGUCUCAACUCUTT against ZNF575 the median seed-adjusted z-score was inactive: 0.458. With AGAAAUGUCUUGUAGUGAATT against SYT14L the median seed-adjusted z-score was inactive: 0.2. For CGACAUCUACUGCUGUUUATT against PCDHA7, the median seed-adjusted z-score was inactive: 0.552. For GACUAUUUAAACAACCUUUTT against FGD5, the median seed-adjusted z-score was inactive: -0.0561. With GAAGUAGACUUGAUACGAATT against AQR the median seed-adjusted z-score was active: -1.56. For GCGGCAGUGUUAGCAGCUATT against PACSIN1, the median seed-adjusted z-score was inactive: -0.681. For CCCUUUCCGAGAUAACGUATT against ATIC, the median seed-adjusted z-score was inactive: -0.0267. With GGAAGGACAUGUAUGAGAATT against ITPKC the median seed-adjusted z-score was inactive: 0.218. In the case of GGCUUAAACUUAGAGUCAATT against MYLIP, the median seed-adjusted z-score was inactive: 0.652. In the case of CAAGCAAGCCGAGAACUUUTT against SIAH2, the median seed-adjusted z-score was inactive: 0.156. With CCUACAUCGUGAACAAGAATT against EMILIN2 the median seed-adjusted z-score was inactive: 0.726. In the case of GGACGACUUCUUUAAGUCATT against PGD, the median seed-adjusted z-score was active: -1.55. For GACUGUAACAUCAUACUGATT against ZNF544, the median seed-adjusted z-score was inactive: -0.00739. For GGAGAUGCAUAAAAGGAAATT against BTN2A3, the median seed-adjusted z-score was inactive: -0.483. In the case of CGCAAUGACCUGUACCUAATT against DOCK3, the median seed-adjusted z-score was inactive: 0.51. For CCACCGCCUACUUCCUGUATT against CD74, the median seed-adjusted z-score was inactive: 0.0748. With GCCUGAUUCUAUUGCAUCATT against PKNOX1 the median seed-adjusted z-score was inactive: 0.68. With CCAUUGGGCUAUGACCUGATT against ACOT4 the median seed-adjusted z-score was inactive: -0.158. In the case of GCCUUGGAUCGAAAAAGUATT against ODF1, the median seed-adjusted z-score was inactive: 0.912. For GGCGACGAUUCUUCCUUCATT against PTHLH, the median seed-adjusted z-score was inactive: 0.00556. For GGAUCUACUGGAAGAAGUATT against MTA2, the median seed-adjusted z-score was inactive: 0.947. In the case of CUACCGGAUUGAGAUGGAATT against MEGF6, the median seed-adjusted z-score was inactive: 0. For GACAAAUCACCAUUCGUUATT against PPARG, the median seed-adjusted z-score was inactive: -0.0309. In the case of CCAUCUCCAGUUGUAUUUUTT against CHKA, the median seed-adjusted z-score was inactive: -0.558. For GAAUUGACCUUCUUAGGAATT against TDRD9, the median seed-adjusted z-score was inactive: 0.0754. For GAUGCCCAGUGUCCUGUUATT against PIF1, the median seed-adjusted z-score was inactive: -0.0455. For CCAUCGAUGAUGACUGUAATT against ETFB, the median seed-adjusted z-score was inactive: 0.0669. In the case of CCUACUCCAUGGUGGGAUATT against SP7, the median seed-adjusted z-score was inactive: -0.0435. For CCCACACUCUAGACUGAAATT against MEF2D, the median seed-adjusted z-score was inactive: 0.0021. With GGGACUCAGUACUUCCAUATT against SLC39A8 the median seed-adjusted z-score was inactive: 0.265. For GAACCUUCAUUUCGAGGAATT against ZNF397, the median seed-adjusted z-score was inactive: -0.107. With GCAUGAGUAUCUAUGACGATT against ATP5C1 the median seed-adjusted z-score was inactive: -0.0179. In the case of CCAUGGACCUUACUGGAGATT against ARHGDIB, the median seed-adjusted z-score was inactive: -0.549. In the case of GGAUGCUCAGACAAGAAUATT against LPAL2, the median seed-adjusted z-score was inactive: 0.7. With GCAGUUAGAUGUCAGGACATT against PPIA the median seed-adjusted z-score was inactive: 0.0169.
